Source: patent US20150218523A1, “MANUFACTURE OF VASCULAR SMOOTH MUSCLE CELLS AND THE USE” (Agency for Science, Technology and Research, priority 2014, published 2015)
At least one compound was matched to its structure with a doubt left.

Tests used:
[1] = tested on: NCSMCs derived from hESC (H9); conditions: NCSMCs at 1% oxygen
[2] = tested on: human iPSC (KYOUDXR0109B)-derived NCSMC; assay: High-throughput Aβ uptake assay with reference drugs on iPSC-derived NCSMC; format: cell-based; conditions: drug 48 hr, labeled Aβ uptake for 1 hr, 96-well format
LRP1 and LDLR = assay: Flow cytometric analysis of LRP1 and LDLR protein expression after compound treatment of NCSMCs at 1% oxygen; format: cell-based, human; conditions: 48 hr compound treatment
lipoprotein receptors = assay: qRT-PCR of lipoprotein receptor gene expression after compound treatment of NCSMCs at 1% oxygen; format: cell-based, human; conditions: 48 hr compound treatment

Compound | Effect on Aβ uptake (Aβ40 and Aβ42) over the vehicle control ([1]; drug 48 hr (minocycline 5 μM, losartan 5 μM), then labeled Aβ for 1 hr) | Aβ uptake (cell-associated Aβ) [2] | Protein expression of lipoprotein receptors (LRP1, LDLR) (LRP1 and LDLR) | Gene expression of lipoprotein receptors (lipoprotein receptors) | Aβ42 uptake over the vehicle controls (cell-associated Aβ, mean fluorescence brightness normalized to no-uptake control) ([1]; drug 48 hr (rifampicin 5 μM), then labeled Aβ42 (2 mg/ml) for 1 hr, p=0.0174)
CN(C)c1ccc(O)c2c1C[C@H]1C[C@H]3[C@H](N(C)C)C(O)=C(C(N)=O)C(=O)[C@@]3(O)C(O)=C1C2=O [minocycline] | may not have any apparent effect |  |  |  | 
CO[C@H]1/C=C/O[C@@]2(C)Oc3c(C)c(O)c4c(O)c(c(/C=N/N5CCN(C)CC5)c(O)c4c3C2=O)NC(=O)/C(C)=C\C=C\[C@H](C)[C@H](O)[C@@H](C)[C@@H](O)[C@@H](C)[C@H](OC(C)=O)[C@@H]1C [rifampicin] |  | could improve Aβ uptake | upregulated | upregulated | significantly increased
